Experiments:
[1] = Dissolution of solid phase cystine by cystine binding drugs in normal urine; parameters: species or system human; settings: ten normal urine samples, 48 hours, 37° C.
Protocol: Using the same incubation buffer and cystine-dissolving agent systems as for the initial solid phase dissolution assay given in Example 1, increasing amounts of D-penicillamine, tiopronin, or captopril were added to 25 ml aliquots of the incubation buffer. A fixed amount of cystine was added; for tiopronin and D-penicillamine, about 40 mg, and for captopril about 20 mg. […] Incubation was carried out as in Example 1. After 48 hours, the pellet and supernatant were separated by centrifugation, the pellet was dissolved in 25 ml of cystine-dissolving agent, an alkalinizing buffer of 0.1 M sodium carbonate, pH 9.9, (Sigma Aldrich Corp, Catalog # S-7795), to form a final cystine solution. Cystine concentration was determined both in the supernatant and the final cystine solution according to the procedure given in Example 3. This same protocol was repeated using the ten normal urine samples employed in the basic solid phase dissolution study described in Example 1.
Cystine concentrations in either the incubation buffer or normal urine after removal of the residual solid phase cystine, or the final cystine solution after the dissolution of the solid phase cystine in a cystine-dissolving agent as shown in Example 1 and 2 were measured using the modified cyanide-nitroprusside method for quantifying urinary cystine concentration as reported by Nakagawa and Coe (Nakagawa, Y. and Coe, F. 1999. Clin Chim Acta 289:57–68). A 100 microliter aliquot was mixed with 400 microliters of water and 1 milliliter of 0.01 M sodium phosphate buffer containing 0.15 mol/liter NaCl, pH 7.3 (PBS). After adding 300 microliters of 10% NaCN aqueous solution (w/v), the sample was incubated for twenty minutes at room temperature. Color was developed by adding 100 microliters of 20% sodium nitroprusside aqueous solution (w/v). Within 20 seconds of the sodium nitroprusside addition, color intensity was then measured at 521 nm using a Beckman spectrophotometer (model DU 640), and cystine concentration was calculated by comparison to a standard curve which was prepared with each assay. […]

[2] = Effect of thiol drugs on reducing (cyanide-nitroprusside) assay in buffer saturated with cystine; settings: drug added to saturated solution of cystine in buffer (FIG. 5B)

SMILES: CC(C)(S)[C@@H](N)C(=O)O [D-penicillamine]
- Regression intercept, URINE [1]: 1.41 ± 0.06
- effect on reaction signal of reducing assay [2]: initially reduced the reaction signal

SMILES: C[C@H](CS)C(=O)N1CCC[C@H]1C(=O)O [captopril]
- Regression intercept, URINE [1]: 1.36 ± 0.04
- effect on reaction signal of reducing assay [2]: large signal increase

SMILES: CC(S)C(=O)NCC(=O)O (stereo not drawn) [tiopronin]
- Regression intercept, URINE [1]: 1.51 ± 0.06
- effect on reaction signal of reducing assay [2]: lesser increase

Source: US6991937B2, “Urine cystine quantitation and supersaturation assay” (Litholink Corporation, priority 2001, dated 2006)
